Literature values as cited in patent US20250332095A1, “METHODS FOR TREATING RESPIRATORY VIRAL INFECTIONS” (Quimica Luar S.R.L., priority 2020, published 2025).
Like-named read-outs stand apart in the source and are kept apart here. At least one compound was matched to its structure with a doubt left.

Assays:
COVID19 [1] = details: preliminary findings
COVID19 [2] = details: COVID19 patients, intravenous drug

Compound	reduction of mortality (COVID19 [1]; patients on ventilators)	reduction of mortality (COVID19 [1]; patients only on oxygen)	recovery times (COVID19 [2])
C[C@@H]1C[C@H]2[C@@H]3CCC4=CC(=O)C=C[C@]4(C)[C@@]3(F)[C@@H](O)C[C@]2(C)[C@@]1(O)C(=O)CO [Dexamethasone, dexamethasone]	one third	one fifth	
CCC(CC)COC(=O)[C@H](C)N[P@](=O)(OC[C@H]1O[C@@](C#N)(c2ccc3c(N)ncnn23)[C@H](O)[C@@H]1O)Oc1ccccc1 [Remdesivir, remdesivir]			shorten recovery times
